Results deposited as PubChem BioAssay AID1224828 (NIAID, 2016)
In all, the deposit lists about 17,000 reagents; this is a part drawn at random. In the full data, 762 (4.5%) were called active. 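Active calls include both raised and lowered p65 entry, mostly lowered; wells with fewer than 50 cells lack a z-score.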 Raw values are not corrected between plates. The numbers tell different reagents against one gene apart.

Aim: 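Find genes required for NF-kappaB p65 moving into the nucleus after LPS in mouse macrophages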 (primary screen)
Cells: mouse RAW264.7 G9 macrophage reporter cells (GFP-p65, Tnf promoter-mCherry)
Reagent: siRNA pool against mouse genes, 100 nM
Duration: 2 days siRNA transfection, then 40 min LPS before fixation
Conditions: LPS (Salmonella minnesota R595) at 10 ng/ml
Measured: 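Microscopy ratio of nuclear to perinuclear-ring GFP-p65 signal, scaled to the plate median; gene score is the average of two replicate robust z-scores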
Direction: p65 translocation robust z-score: higher = more nuclear NF-kappaB p65 after LPS than the plate median; nuclear/cytoplasmic p65 ratio: higher = more nuclear NF-kappaB p65
Active means: 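Active if robust z is above 3.3 (negative regulators) or below -1.56, the Tlr4 control median (positive regulators); activity score 50 or more; control wells not called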
Meaning of the calls: active = hit (p65 shift raised or lowered); inactive = no clear change

| Gene | reagent | p65 translocation robust z-score | nuclear/cytoplasmic p65 ratio, rep 1 | nuclear/cytoplasmic p65 ratio, rep 2 | low cell count flag | outcome |
| --- | --- | --- | --- | --- | --- | --- |
| Or8b12i (olfactory receptor family 8 subfamily B member 12I) | 1 | 0.23 | 1.43 | 1.34 | enough cells to score | inactive |
| Brd3 (bromodomain containing 3) | 1 | -0.64 | 1.56 | 1.47 | enough cells to score | inactive |
| Zfyve16 (zinc finger, FYVE domain containing 16) | 1 | -0.33 | 1.32 | 1.26 | enough cells to score | inactive |
| Adam11 (a disintegrin and metallopeptidase domain 11) | 1 | 0.29 | 1.67 | 1.66 | enough cells to score | inactive |
| Fkbp1b (FK506 binding protein 1b) | 1 | -1.33 | 1.43 | 1.25 | enough cells to score | inactive |
| Cnp (2',3'-cyclic nucleotide 3' phosphodiesterase) | 1 | -0.5 | 1.51 | 1.71 | enough cells to score | inactive |
| Usp28 (ubiquitin specific peptidase 28) | 1 | – | 1.49 | 1.16 | fewer than 50 cells per well; well left out of scoring | inactive |
| Kremen1 (kringle containing transmembrane protein 1) | 1 | -1.06 | 1.3 | 1.27 | enough cells to score | inactive |
| Map3k7cl (Map3k7 C-terminal like) | 1 | 0.21 | 1.48 | 1.25 | enough cells to score | inactive |
| F8a (factor 8-associated gene A) | 1 | 1.57 | 1.69 | 1.8 | enough cells to score | inactive |
| Dnajc30 (DnaJ heat shock protein family (Hsp40) member C30) | 1 | 0.46 | 1.52 | 1.26 | enough cells to score | inactive |
| Rngtt (RNA guanylyltransferase and 5'-phosphatase) | 1 | -0.51 | 1.35 | 1.16 | enough cells to score | inactive |
| Tle2 (transducin-like enhancer of split 2) | 1 | 1.68 | 1.68 | 1.84 | enough cells to score | inactive |
| Fbxo2 (F-box protein 2) | 1 | -0.36 | 1.51 | 1.31 | enough cells to score | inactive |
| Taf6 (TATA-box binding protein associated factor 6) | 1 | -0.06 | 1.49 | 1.53 | enough cells to score | inactive |
| Rxylt1 (ribitol xylosyltransferase 1) | 1 | 0.11 | 1.62 | 1.45 | enough cells to score | inactive |
| Clec7a (C-type lectin domain family 7, member a) | 1 | -1.07 | 1.46 | 1.59 | enough cells to score | inactive |
| Cmtm7 (CKLF-like MARVEL transmembrane domain containing 7) | 1 | -0.63 | 1.39 | 1.29 | enough cells to score | inactive |
| Dpyd (dihydropyrimidine dehydrogenase) | 1 | -1.3 | 1.4 | 1.2 | enough cells to score | inactive |
| Pfn3 (profilin 3) | 1 | -0.74 | 1.29 | 1.2 | enough cells to score | inactive |
| Tmem97 (transmembrane protein 97) | 1 | -1.49 | 1.29 | 1.14 | enough cells to score | inactive |
| Xcr1 (chemokine (C motif) receptor 1) | 1 | 0.88 | 1.55 | 1.8 | enough cells to score | inactive |
| Bsnd (barttin CLCNK type accessory beta subunit) | 1 | 0.03 | 1.62 | 1.62 | enough cells to score | inactive |
| Pfdn1 (prefoldin 1) | 1 | 0.17 | 1.51 | 1.4 | enough cells to score | inactive |
| 4933427D14Rik (RIKEN cDNA 4933427D14 gene) | 1 | – | 1.31 | 1.4 | fewer than 50 cells per well; well left out of scoring | inactive |
| Hey2 (hairy/enhancer-of-split related with YRPW motif 2) | 1 | -0.15 | 1.43 | 1.34 | enough cells to score | inactive |
| Dapp1 (dual adaptor for phosphotyrosine and 3-phosphoinositides 1) | 1 | -0.61 | 1.53 | 1.41 | enough cells to score | inactive |
| Adarb1 (adenosine deaminase, RNA-specific, B1) | 1 | -0.39 | 1.55 | 1.62 | enough cells to score | inactive |
| Ears2 (glutamyl-tRNA synthetase 2, mitochondrial) | 1 | – | 1.19 | 1.27 | fewer than 50 cells per well; well left out of scoring | inactive |
| Vsnl1 (visinin-like 1) | 1 | -0.38 | 1.44 | 1.47 | enough cells to score | inactive |
| Enpp6 (ectonucleotide pyrophosphatase/phosphodiesterase 6) | 1 | 0.36 | 1.63 | 1.36 | enough cells to score | inactive |
| Oxtr (oxytocin receptor) | 1 | -1.91 | 1.24 | 1.23 | enough cells to score | active |
| Ddx47 (DEAD box helicase 47) | 1 | -0.37 | 1.52 | 1.49 | enough cells to score | inactive |
| A330008L17Rik (RIKEN cDNA A330008L17 gene) | 1 | -0.46 | 1.2 | 1.46 | enough cells to score | inactive |
| Erfe (erythroferrone) | 1 | – | 1.03 | 1.16 | fewer than 50 cells per well; well left out of scoring | inactive |
| Msx1 (msh homeobox 1) | 1 | -0.43 | 1.4 | 1.28 | enough cells to score | inactive |
| Eif2b3 (eukaryotic translation initiation factor 2B, subunit 3) | 1 | 1.67 | 1.78 | 1.5 | enough cells to score | inactive |
| Atp6v0a4 (ATPase, H+ transporting, lysosomal V0 subunit A4) | 1 | -0.02 | 1.59 | 1.63 | enough cells to score | inactive |
| Camk1 (calcium/calmodulin-dependent protein kinase I) | 1 | 0.16 | 1.66 | 1.45 | enough cells to score | inactive |
| Or12d17 (olfactory receptor family 12 subfamily D member 17) | 1 | 0.03 | 1.42 | 1.69 | enough cells to score | inactive |
| Ube2j1 (ubiquitin-conjugating enzyme E2J 1) | 1 | -0.89 | 1.42 | 1.35 | enough cells to score | inactive |
| Slx4ip (SLX4 interacting protein) | 1 | 0.6 | 1.4 | 1.38 | enough cells to score | inactive |
| Thbs1 (thrombospondin 1) | 1 | 0.36 | 1.53 | 1.61 | enough cells to score | inactive |
| Rabggtb (Rab geranylgeranyl transferase, b subunit) | 1 | 1.57 | 1.79 | 1.69 | enough cells to score | inactive |
| Fbxl20 (F-box and leucine-rich repeat protein 20) | 1 | – | 1.12 | 1.53 | fewer than 50 cells per well; well left out of scoring | inactive |
| Fbxl20 (F-box and leucine-rich repeat protein 20) | 2 | -1.37 | 1.25 | 1.22 | enough cells to score | inactive |
| Slc46a2 | 1 | 1.51 | 1.58 | 1.4 | enough cells to score | inactive |
| Nhlrc1 (NHL repeat containing 1) | 1 | 0.08 | 1.72 | 1.67 | enough cells to score | inactive |
| Ifngr2 (interferon gamma receptor 2) | 1 | -0.36 | 1.44 | 1.28 | enough cells to score | inactive |
| Slc40a1 | 1 | -0.29 | 1.47 | 1.54 | enough cells to score | inactive |
| Ppip5k1 (diphosphoinositol pentakisphosphate kinase 1) | 1 | 0.2 | 1.56 | 1.93 | enough cells to score | inactive |
| Kcne2 | 1 | – | 1.23 | 1.24 | fewer than 50 cells per well; well left out of scoring | inactive |
| Nrp1 (neuropilin 1) | 1 | -0.38 | 1.4 | 1.36 | enough cells to score | inactive |
| 4930433I11Rik (RIKEN cDNA 4930433I11 gene) | 1 | – | 1.16 | 1.58 | fewer than 50 cells per well; well left out of scoring | inactive |
| Git1 (GIT ArfGAP 1) | 1 | -0.39 | 1.65 | 1.3 | enough cells to score | inactive |
| Irak3 (interleukin-1 receptor-associated kinase 3) | 1 | -0.98 | 1.56 | 1.23 | enough cells to score | inactive |
| Elovl3 (ELOVL fatty acid elongase 3) | 1 | – | 1.47 | 1.35 | fewer than 50 cells per well; well left out of scoring | inactive |
| Dctn4 (dynactin 4) | 1 | 1.28 | 1.53 | 1.65 | enough cells to score | inactive |
| Or11l3 (olfactory receptor family 11 subfamily L member 3) | 1 | 0.31 | 1.67 | 1.45 | enough cells to score | inactive |

Reagents above marked active (1):
| Gene | reagent | p65 translocation robust z-score | nuclear/cytoplasmic p65 ratio, rep 1 | nuclear/cytoplasmic p65 ratio, rep 2 | low cell count flag | outcome |
| --- | --- | --- | --- | --- | --- | --- |
| Oxtr (oxytocin receptor) | 1 | -1.91 | 1.24 | 1.23 | enough cells to score | active |
